# Reference: publication PMC5348399
# Amino acid sequences for entries named in this document (tags omitted).
# UniProt Q9UNE7: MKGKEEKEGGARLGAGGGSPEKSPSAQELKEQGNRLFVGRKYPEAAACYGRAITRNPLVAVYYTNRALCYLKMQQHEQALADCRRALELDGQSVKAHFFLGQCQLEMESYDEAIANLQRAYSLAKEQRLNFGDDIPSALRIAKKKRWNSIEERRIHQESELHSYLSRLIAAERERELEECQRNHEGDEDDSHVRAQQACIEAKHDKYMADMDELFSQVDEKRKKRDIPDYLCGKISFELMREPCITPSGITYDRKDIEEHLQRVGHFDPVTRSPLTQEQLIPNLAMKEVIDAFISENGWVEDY
# UniProt P10275: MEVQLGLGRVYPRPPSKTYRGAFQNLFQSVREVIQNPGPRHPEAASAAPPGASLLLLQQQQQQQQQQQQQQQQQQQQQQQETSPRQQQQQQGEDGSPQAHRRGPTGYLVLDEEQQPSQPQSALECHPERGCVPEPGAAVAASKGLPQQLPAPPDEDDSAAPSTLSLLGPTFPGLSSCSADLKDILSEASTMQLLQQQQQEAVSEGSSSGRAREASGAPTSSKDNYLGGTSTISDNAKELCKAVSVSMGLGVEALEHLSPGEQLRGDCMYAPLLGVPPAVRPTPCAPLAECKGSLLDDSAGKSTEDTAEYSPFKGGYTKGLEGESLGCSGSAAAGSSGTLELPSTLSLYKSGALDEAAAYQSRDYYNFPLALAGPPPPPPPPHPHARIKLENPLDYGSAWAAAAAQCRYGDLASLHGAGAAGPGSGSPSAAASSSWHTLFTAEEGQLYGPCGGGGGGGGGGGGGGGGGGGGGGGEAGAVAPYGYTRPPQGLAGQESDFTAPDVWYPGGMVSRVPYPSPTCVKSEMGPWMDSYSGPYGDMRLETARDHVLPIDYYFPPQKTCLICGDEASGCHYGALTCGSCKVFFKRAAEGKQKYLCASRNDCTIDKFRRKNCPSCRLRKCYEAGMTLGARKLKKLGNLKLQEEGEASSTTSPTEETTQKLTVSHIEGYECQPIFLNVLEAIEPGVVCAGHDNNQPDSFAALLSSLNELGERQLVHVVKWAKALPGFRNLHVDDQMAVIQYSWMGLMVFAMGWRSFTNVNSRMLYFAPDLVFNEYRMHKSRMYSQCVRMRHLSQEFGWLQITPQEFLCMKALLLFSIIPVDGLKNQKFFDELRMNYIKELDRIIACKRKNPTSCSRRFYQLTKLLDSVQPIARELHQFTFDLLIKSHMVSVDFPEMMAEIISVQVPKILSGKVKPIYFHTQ
# Read-outs that look alike come from different tables or passages of the source. No constants are given. Whether binding was seen depends on the method and setting. In cells and extracts the contact can be indirect. Some binding calls cover weakened binding; strength is not graded here. For some assays here: Tags and fused reporters may be left off the sequences shown.
# B1: HA-PC-1 (protein, UniProt P55327 1-224)
# chain: MDCREMDLYEDYQSPFDFDAGVNKSYLYLSPSGNSSPPGSPTLQKFGLLRTDPVPEEGEDVAATISATETLSEEEQEELRRELAKVEEEIQTLSQVLAAKEKHLAEIKRKLGINSLQELKQNIAKGWQDVTATSAYKKTSETLSQAGQKASAAFSSVGSVITKKLEDVKNSPTFKSFEEKVENLKSKVGGTKPAGGDFGEVLNSAANASATTTEPLPEKTQESL
# Experiments:
# [1] = target: T1, Flag-PC-1 (human) (UniProt P55327); test: co-IP; HEK293 cells transiently transfected, lysed 48 h later in RIPA buffer; precipitated with anti-FLAG-M2 agarose beads, Western blot; AR with CHIP tested with and without co-expressed HA-PC-1
# T1 sequence: B1 chain
# [2] = target: Flag-CHIP (UniProt Q9UNE7); test: as above
# [3] = target: GST-CHIP (UniProt Q9UNE7); test: pull-down; GST-PC-1 or GST-CHIP on glutathione beads incubated with lysates of transfected HEK293 cells at 4°C for 4-6 h, Western blot; AR with GST-CHIP tested with and without co-expressed HA-PC-1; only the target purified
# [4] = target: T2, GST-PC-1 (human) (UniProt P55327); test: as above
# T2 sequence: B1 chain
# [5] = target: endogenous AR (human (endogenous in LNCaP)) (UniProt P10275); test: co-IP; endogenous proteins; LNCaP and PC-1 overexpressing LNCaP-PC-1 lysates with 2 μg AR antibody and protein A/G-Sepharose at 4°C overnight, blot with anti-CHIP
# [6] = target: GST-CHIP (UniProt Q9UNE7); test: pull-down; GST-PC-1 or GST-CHIP on glutathione beads incubated with lysates of transfected HEK293 cells at 4°C for 4-6 h, Western blot; AR with GST-CHIP tested with and without co-expressed HA-PC-1; only the target purified; remark: listed apart in the source
# [7] = target: Flag-CHIP (UniProt Q9UNE7); test: co-IP; HEK293 cells transiently transfected, lysed 48 h later in RIPA buffer; precipitated with anti-FLAG-M2 agarose beads, Western blot; AR with CHIP tested with and without co-expressed HA-PC-1; remark: listed apart in the source
molecule,measurement,setting,value
Myc-CHIP (from UniProt Q9UNE7 1-303) (enzyme),binding,[1],binds
Myc-AR (from UniProt P10275 1-920) (receptor),binding,[1],binds
same,binding,[2],binds
same,binding,[3],binds
same,binding,[4],binds
endogenous CHIP (from UniProt Q9UNE7 1-303) (enzyme),binding,[5],binds
B1,binding,[6],binds
same,binding,[7],binds
